Source: the supplement of paper PMC12823440, “Inhibitors supercharge kinase turnover through native proteolytic circuits” (Nature, 2025)
Counter-ions that a name gives are not always drawn. This is one part of the list. The calls rarely recur for the same compound in another form.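 In K562 cells expressing nanoluciferase-fused kinases, luminescence was recorded at 4 h intervals between 2 and 18 h, normalized as percent of control with DMSO at 100% and a positive control at 0%. A significant (2 sigma) signal drop marks a time point as decreased. The authors' rule for a hit is not shown and takes in more than the number of time points.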

The chains behind the UniProt entries cited, without tags or fusion partners. Where a name states a change or a piece, a line headed by the entry shows the natural chain unless it says otherwise.
UniProt O75460: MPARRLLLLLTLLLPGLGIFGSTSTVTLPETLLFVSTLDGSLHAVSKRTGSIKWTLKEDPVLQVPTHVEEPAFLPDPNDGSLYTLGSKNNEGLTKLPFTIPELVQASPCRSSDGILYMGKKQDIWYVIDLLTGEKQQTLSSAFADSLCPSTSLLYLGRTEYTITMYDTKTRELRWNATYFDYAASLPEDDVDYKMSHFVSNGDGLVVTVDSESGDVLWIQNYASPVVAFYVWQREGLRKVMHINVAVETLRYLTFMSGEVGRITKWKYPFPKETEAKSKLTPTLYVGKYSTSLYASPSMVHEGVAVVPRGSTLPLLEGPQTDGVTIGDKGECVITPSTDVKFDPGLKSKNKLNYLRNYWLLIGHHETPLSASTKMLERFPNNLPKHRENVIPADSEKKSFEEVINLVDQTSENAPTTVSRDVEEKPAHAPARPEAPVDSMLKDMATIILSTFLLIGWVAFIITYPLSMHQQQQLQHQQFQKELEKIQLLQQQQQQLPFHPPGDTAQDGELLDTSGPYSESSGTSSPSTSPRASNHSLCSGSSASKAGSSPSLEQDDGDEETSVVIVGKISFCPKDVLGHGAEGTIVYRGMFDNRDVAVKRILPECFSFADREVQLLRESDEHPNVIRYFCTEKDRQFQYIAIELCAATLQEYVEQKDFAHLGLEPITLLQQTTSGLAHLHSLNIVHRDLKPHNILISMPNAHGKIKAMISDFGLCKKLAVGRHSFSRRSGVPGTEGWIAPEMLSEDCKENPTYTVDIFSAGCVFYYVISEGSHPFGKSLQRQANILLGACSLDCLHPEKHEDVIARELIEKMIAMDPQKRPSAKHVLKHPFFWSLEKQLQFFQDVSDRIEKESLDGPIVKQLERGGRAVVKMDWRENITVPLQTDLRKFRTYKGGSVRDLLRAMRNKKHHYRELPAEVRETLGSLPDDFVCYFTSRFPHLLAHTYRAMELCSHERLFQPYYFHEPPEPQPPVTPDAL
UniProt P06241, whole entry, looked up: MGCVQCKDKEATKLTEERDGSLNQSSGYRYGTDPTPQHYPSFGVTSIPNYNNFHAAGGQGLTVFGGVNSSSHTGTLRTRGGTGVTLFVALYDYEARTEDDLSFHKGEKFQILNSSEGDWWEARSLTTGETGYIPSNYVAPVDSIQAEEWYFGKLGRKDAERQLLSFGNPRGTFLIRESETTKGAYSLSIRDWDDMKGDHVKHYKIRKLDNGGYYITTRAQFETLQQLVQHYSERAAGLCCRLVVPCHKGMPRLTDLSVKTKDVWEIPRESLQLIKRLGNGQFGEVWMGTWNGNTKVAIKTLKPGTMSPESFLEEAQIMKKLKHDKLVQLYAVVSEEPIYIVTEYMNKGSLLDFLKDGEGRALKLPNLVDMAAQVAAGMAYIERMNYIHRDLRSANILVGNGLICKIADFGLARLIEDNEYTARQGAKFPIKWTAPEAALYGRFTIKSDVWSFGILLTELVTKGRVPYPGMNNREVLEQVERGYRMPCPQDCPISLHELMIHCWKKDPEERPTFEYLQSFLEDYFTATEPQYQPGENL
UniProt P14616: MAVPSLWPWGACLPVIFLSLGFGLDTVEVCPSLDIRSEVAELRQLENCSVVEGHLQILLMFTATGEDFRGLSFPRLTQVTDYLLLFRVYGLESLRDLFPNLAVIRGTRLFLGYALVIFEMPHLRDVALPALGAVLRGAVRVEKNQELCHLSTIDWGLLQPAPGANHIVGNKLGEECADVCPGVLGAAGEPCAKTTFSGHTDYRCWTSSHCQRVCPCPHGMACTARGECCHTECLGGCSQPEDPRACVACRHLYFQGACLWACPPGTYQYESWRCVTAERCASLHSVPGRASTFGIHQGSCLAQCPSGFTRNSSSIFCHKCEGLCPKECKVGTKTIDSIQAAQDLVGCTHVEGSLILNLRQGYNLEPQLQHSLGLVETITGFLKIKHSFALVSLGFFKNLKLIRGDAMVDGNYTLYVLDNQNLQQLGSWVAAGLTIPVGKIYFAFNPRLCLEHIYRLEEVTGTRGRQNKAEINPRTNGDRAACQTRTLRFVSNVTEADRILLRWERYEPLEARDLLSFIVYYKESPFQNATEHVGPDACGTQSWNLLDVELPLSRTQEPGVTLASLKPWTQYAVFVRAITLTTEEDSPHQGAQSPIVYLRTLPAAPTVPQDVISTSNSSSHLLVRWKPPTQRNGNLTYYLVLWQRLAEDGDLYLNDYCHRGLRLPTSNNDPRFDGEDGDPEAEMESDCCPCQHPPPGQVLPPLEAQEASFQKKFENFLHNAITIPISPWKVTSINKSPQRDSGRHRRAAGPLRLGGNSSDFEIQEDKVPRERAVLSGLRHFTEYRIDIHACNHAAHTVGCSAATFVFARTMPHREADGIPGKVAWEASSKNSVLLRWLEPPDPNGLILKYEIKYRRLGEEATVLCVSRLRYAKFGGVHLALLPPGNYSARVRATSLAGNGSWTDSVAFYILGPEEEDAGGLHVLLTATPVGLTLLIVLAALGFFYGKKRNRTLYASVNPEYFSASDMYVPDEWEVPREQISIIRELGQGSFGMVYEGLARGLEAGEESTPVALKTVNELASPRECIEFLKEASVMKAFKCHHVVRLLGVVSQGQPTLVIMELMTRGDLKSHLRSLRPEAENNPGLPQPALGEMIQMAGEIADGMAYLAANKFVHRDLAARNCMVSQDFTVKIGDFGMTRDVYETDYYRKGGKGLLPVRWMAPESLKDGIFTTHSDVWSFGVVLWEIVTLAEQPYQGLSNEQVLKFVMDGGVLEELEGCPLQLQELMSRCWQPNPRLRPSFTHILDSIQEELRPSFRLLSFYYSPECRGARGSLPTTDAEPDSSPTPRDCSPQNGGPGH
UniProt Q9Y616: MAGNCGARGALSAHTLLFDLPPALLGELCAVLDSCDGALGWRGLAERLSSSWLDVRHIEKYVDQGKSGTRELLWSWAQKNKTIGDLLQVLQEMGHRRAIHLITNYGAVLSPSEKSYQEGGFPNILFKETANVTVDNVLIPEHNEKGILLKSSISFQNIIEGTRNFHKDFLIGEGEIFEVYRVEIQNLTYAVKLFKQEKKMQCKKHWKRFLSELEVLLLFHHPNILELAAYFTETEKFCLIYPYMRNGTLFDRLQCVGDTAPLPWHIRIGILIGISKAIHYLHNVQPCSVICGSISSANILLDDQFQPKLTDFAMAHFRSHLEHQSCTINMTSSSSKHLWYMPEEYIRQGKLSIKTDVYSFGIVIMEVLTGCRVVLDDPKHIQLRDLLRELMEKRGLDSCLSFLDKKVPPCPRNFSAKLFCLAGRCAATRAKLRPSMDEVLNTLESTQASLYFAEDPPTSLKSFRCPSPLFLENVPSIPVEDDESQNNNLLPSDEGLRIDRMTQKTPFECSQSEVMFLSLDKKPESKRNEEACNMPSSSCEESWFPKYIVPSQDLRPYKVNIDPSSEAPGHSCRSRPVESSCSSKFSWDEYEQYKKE
UniProt P23458: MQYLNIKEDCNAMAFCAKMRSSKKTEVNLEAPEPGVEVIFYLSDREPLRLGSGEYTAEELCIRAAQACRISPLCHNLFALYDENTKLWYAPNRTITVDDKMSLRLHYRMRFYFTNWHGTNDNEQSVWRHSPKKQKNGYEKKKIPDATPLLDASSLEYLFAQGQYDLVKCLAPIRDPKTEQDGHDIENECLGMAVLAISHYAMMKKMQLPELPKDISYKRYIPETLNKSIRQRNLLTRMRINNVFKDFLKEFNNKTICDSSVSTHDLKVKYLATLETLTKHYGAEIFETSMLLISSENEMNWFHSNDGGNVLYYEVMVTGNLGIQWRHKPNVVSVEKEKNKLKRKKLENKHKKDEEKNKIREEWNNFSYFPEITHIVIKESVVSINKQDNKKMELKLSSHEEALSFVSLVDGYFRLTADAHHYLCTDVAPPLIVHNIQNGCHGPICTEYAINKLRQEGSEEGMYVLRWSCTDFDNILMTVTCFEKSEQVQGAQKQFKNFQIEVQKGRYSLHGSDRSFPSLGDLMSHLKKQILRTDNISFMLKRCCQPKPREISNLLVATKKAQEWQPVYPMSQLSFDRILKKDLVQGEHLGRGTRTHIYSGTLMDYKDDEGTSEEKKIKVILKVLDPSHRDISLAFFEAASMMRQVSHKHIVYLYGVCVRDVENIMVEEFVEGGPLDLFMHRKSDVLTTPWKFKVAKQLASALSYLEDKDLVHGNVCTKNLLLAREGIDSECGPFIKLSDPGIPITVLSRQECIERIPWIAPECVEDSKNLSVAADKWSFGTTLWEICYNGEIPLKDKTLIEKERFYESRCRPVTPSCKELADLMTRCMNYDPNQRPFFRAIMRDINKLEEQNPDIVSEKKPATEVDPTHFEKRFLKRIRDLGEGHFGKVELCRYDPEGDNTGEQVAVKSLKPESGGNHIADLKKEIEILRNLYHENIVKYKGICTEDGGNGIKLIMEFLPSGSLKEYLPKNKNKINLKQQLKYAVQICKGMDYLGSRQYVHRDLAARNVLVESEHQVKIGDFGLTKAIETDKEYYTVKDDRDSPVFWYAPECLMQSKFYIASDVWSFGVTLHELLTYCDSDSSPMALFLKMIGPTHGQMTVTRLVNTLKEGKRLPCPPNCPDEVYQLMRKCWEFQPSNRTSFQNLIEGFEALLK
UniProt P06239: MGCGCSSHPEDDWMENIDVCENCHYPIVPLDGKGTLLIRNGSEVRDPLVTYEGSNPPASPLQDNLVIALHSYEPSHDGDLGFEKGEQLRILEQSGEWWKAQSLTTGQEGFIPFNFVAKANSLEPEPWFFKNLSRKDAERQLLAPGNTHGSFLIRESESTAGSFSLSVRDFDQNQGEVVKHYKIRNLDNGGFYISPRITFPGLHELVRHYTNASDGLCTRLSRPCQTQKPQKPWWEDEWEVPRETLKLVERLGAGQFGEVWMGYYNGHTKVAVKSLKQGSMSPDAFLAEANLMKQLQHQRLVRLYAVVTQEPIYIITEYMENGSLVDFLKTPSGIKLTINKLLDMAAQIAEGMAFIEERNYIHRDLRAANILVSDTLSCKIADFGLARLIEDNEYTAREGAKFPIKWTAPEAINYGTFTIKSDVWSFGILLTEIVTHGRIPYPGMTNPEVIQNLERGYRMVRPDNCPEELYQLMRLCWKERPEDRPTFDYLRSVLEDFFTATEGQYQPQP
UniProt P53667: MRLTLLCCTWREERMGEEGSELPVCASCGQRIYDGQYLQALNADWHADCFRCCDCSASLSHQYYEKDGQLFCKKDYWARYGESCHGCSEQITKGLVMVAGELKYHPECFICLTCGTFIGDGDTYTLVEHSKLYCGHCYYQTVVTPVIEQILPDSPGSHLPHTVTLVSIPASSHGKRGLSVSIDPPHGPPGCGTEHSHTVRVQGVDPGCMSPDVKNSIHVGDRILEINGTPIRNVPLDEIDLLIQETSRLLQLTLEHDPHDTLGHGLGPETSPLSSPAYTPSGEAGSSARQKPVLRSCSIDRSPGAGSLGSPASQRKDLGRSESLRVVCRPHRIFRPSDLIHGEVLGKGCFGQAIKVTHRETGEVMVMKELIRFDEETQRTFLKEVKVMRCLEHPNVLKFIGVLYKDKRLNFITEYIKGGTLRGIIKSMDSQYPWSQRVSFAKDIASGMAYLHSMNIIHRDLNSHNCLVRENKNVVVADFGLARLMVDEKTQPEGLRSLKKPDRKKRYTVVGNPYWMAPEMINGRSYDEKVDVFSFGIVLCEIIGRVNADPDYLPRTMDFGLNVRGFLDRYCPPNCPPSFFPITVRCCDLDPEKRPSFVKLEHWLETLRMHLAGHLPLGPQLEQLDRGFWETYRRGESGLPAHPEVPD
UniProt P53671: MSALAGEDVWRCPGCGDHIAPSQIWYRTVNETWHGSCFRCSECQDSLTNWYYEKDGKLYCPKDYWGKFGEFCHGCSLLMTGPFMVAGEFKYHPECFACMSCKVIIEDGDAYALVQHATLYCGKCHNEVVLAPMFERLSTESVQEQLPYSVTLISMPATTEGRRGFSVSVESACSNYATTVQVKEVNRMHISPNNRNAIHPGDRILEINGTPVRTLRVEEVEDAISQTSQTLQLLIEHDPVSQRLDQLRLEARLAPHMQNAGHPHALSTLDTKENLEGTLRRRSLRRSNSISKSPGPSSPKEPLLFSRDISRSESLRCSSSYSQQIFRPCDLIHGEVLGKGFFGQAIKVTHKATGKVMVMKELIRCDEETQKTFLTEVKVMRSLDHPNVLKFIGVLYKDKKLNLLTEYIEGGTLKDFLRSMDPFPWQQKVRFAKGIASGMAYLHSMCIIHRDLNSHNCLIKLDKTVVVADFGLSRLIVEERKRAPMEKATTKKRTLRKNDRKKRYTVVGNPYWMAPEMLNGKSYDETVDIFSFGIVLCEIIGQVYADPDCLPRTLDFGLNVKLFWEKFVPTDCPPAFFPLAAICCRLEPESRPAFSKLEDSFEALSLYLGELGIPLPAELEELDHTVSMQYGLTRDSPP

Key:
Experiment in all cases: kinase-Nluc reporter destabilization hit call (1 = scored as downregulated) (binary); higher = compound decreases kinase abundance
Details in all cases: K562, 2-18 h
ERN1 = ERN1 (UniProt O75460)
FGFR1 = FGFR1 (UniProt P11362)
FGFR2 = FGFR2 (UniProt P21802)
FGFR3 = FGFR3 (UniProt P22607)
FGR = FGR (UniProt P09769)
FLT3 = FLT3 (UniProt P36888)
FYN = FYN (UniProt P06241)
GSK3A = GSK3A (UniProt P49840)
HER2 = HER2 (UniProt P04626)
INSRR = INSRR (UniProt P14616)
IRAK3 = IRAK3 (UniProt Q9Y616)
JAK1 = JAK1 (UniProt P23458)
LCK = LCK (UniProt P06239)
LIMK1 = LIMK1 (UniProt P53667)
LIMK2 = LIMK2 (UniProt P53671)
LMTK2 = LMTK2 (UniProt Q8IWU2)
LYN = LYN (UniProt P07948)
MAP2K1 = MAP2K1 (UniProt Q02750)
MAP2K2 = MAP2K2 (UniProt P36507)
MAP4K2 = MAP4K2 (UniProt Q12851)

Measured: kinase-Nluc reporter destabilization hit call

Cc1cc(Nc2ncc(Cl)c(Nc3ccccc3S(=O)(=O)C(C)C)n2)c(OC(C)C)cc1C1CCNCC1 [Ceritinib]
inactive: ERN1; 2.5 µM 0 | FGFR1; 2.5 µM 0 | FGFR2; 2.5 µM 0 | FGFR3; 2.5 µM 0 | FGR; 2.5 µM 0 | FLT3; 2.5 µM 0 | FYN; 2.5 µM 0 | GSK3A; 2.5 µM 0 | HER2; 2.5 µM 0 | INSRR; 2.5 µM 0 | IRAK3; 2.5 µM 0 | JAK1; 2.5 µM 0 | LCK; 2.5 µM 0 | LIMK1; 2.5 µM 0 | LIMK2; 2.5 µM 0 | LMTK2; 2.5 µM 0 | LYN; 2.5 µM 0 | MAP2K1; 2.5 µM 0 | MAP2K2; 2.5 µM 0 | MAP4K2; 2.5 µM 0

CNc1ncc2cc(-c3ccc(-c4cccc(C)n4)cc3Cl)c(=O)n(C[C@H]3OC[C@H](N)CO3)c2n1 [G-5555 (hydrochloride)]
inactive: ERN1; 10 µM 0 | FGFR1; 10 µM 0 | FGFR2; 10 µM 0 | FGFR3; 10 µM 0 | FGR; 10 µM 0 | FLT3; 10 µM 0 | FYN; 10 µM 0 | GSK3A; 10 µM 0 | HER2; 10 µM 0 | INSRR; 10 µM 0 | IRAK3; 10 µM 0 | JAK1; 10 µM 0 | LCK; 10 µM 0 | LIMK1; 10 µM 0 | LIMK2; 10 µM 0 | LMTK2; 10 µM 0 | LYN; 10 µM 0 | MAP2K1; 10 µM 0 | MAP2K2; 10 µM 0 | MAP4K2; 10 µM 0

Cc1cccc(/C=N/Nc2cc(N3CCOCC3)nc(OCCc3ccccn3)n2)c1 [Apilimod]
inactive: ERN1; 2.5 µM 0 | FGFR1; 2.5 µM 0 | FGFR2; 2.5 µM 0 | FGFR3; 2.5 µM 0 | FGR; 2.5 µM 0 | FLT3; 2.5 µM 0 | FYN; 2.5 µM 0 | GSK3A; 2.5 µM 0 | HER2; 2.5 µM 0 | INSRR; 2.5 µM 0 | IRAK3; 2.5 µM 0 | JAK1; 2.5 µM 0 | LCK; 2.5 µM 0 | LIMK1; 2.5 µM 0 | LIMK2; 2.5 µM 0 | LMTK2; 2.5 µM 0 | LYN; 2.5 µM 0 | MAP2K1; 2.5 µM 0 | MAP2K2; 2.5 µM 0 | MAP4K2; 2.5 µM 0

COc1cc2nccc(Oc3ccc(NC(=O)C4(C(=O)Nc5ccc(F)cc5)CC4)cc3)c2cc1OC [Cabozantinib (S-malate)]
inactive: ERN1; 10 µM 0 | FGFR1; 10 µM 0 | FGFR2; 10 µM 0 | FGFR3; 10 µM 0 | FGR; 10 µM 0 | FLT3; 10 µM 0 | FYN; 10 µM 0 | GSK3A; 10 µM 0 | HER2; 10 µM 0 | INSRR; 10 µM 0 | IRAK3; 10 µM 0 | JAK1; 10 µM 0 | LCK; 10 µM 0 | LIMK1; 10 µM 0 | LIMK2; 10 µM 0 | LMTK2; 10 µM 0 | LYN; 10 µM 0 | MAP2K1; 10 µM 0 | MAP2K2; 10 µM 0 | MAP4K2; 10 µM 0

C[C@@H](N)c1ccc(C(=O)Nc2ccnc3[nH]ccc23)cc1
inactive: ERN1; 10 µM 0 | FGFR1; 10 µM 0 | FGFR2; 10 µM 0 | FGFR3; 10 µM 0 | FGR; 10 µM 0 | FLT3; 10 µM 0 | FYN; 10 µM 0 | GSK3A; 10 µM 0 | HER2; 10 µM 0 | INSRR; 10 µM 0 | IRAK3; 10 µM 0 | JAK1; 10 µM 0 | LCK; 10 µM 0 | LIMK1; 10 µM 0 | LIMK2; 10 µM 0 | LMTK2; 10 µM 0 | LYN; 10 µM 0 | MAP2K1; 10 µM 0 | MAP2K2; 10 µM 0 | MAP4K2; 10 µM 0

COc1cc2c(cc1OC)-c1c(C)c3ccc(OC)c(OC)c3c[n+]1CC2 [Dehydrocorydaline (chloride)]
inactive: ERN1; 10 µM 0 | FGFR1; 10 µM 0 | FGFR2; 10 µM 0 | FGFR3; 10 µM 0 | FGR; 10 µM 0 | FLT3; 10 µM 0 | FYN; 10 µM 0 | GSK3A; 10 µM 0 | HER2; 10 µM 0 | INSRR; 10 µM 0 | IRAK3; 10 µM 0 | JAK1; 10 µM 0 | LCK; 10 µM 0 | LIMK1; 10 µM 0 | LIMK2; 10 µM 0 | LMTK2; 10 µM 0 | LYN; 10 µM 0 | MAP2K1; 10 µM 0 | MAP2K2; 10 µM 0 | MAP4K2; 10 µM 0

An excerpt from above in order of length of the SMILES, smallest number first.
COc1cc2c(cc1OC)-c1c(C)c3ccc(OC)c(OC)c3c[n+]1CC2 [Dehydrocorydaline (chloride)]
inactive: ERN1; 10 µM 0 | FGFR1; 10 µM 0 | FGFR2; 10 µM 0 | FGFR3; 10 µM 0 | FGR; 10 µM 0 | FLT3; 10 µM 0 | FYN; 10 µM 0 | GSK3A; 10 µM 0 | HER2; 10 µM 0 | INSRR; 10 µM 0 | IRAK3; 10 µM 0 | JAK1; 10 µM 0 | LCK; 10 µM 0 | LIMK1; 10 µM 0 | LIMK2; 10 µM 0 | LMTK2; 10 µM 0 | LYN; 10 µM 0 | MAP2K1; 10 µM 0 | MAP2K2; 10 µM 0 | MAP4K2; 10 µM 0

COc1cc2nccc(Oc3ccc(NC(=O)C4(C(=O)Nc5ccc(F)cc5)CC4)cc3)c2cc1OC [Cabozantinib (S-malate)]
inactive: ERN1; 10 µM 0 | FGFR1; 10 µM 0 | FGFR2; 10 µM 0 | FGFR3; 10 µM 0 | FGR; 10 µM 0 | FLT3; 10 µM 0 | FYN; 10 µM 0 | GSK3A; 10 µM 0 | HER2; 10 µM 0 | INSRR; 10 µM 0 | IRAK3; 10 µM 0 | JAK1; 10 µM 0 | LCK; 10 µM 0 | LIMK1; 10 µM 0 | LIMK2; 10 µM 0 | LMTK2; 10 µM 0 | LYN; 10 µM 0 | MAP2K1; 10 µM 0 | MAP2K2; 10 µM 0 | MAP4K2; 10 µM 0

CNc1ncc2cc(-c3ccc(-c4cccc(C)n4)cc3Cl)c(=O)n(C[C@H]3OC[C@H](N)CO3)c2n1 [G-5555 (hydrochloride)]
inactive: ERN1; 10 µM 0 | FGFR1; 10 µM 0 | FGFR2; 10 µM 0 | FGFR3; 10 µM 0 | FGR; 10 µM 0 | FLT3; 10 µM 0 | FYN; 10 µM 0 | GSK3A; 10 µM 0 | HER2; 10 µM 0 | INSRR; 10 µM 0 | IRAK3; 10 µM 0 | JAK1; 10 µM 0 | LCK; 10 µM 0 | LIMK1; 10 µM 0 | LIMK2; 10 µM 0 | LMTK2; 10 µM 0 | LYN; 10 µM 0 | MAP2K1; 10 µM 0 | MAP2K2; 10 µM 0 | MAP4K2; 10 µM 0

(next part)

CN1CCCN(C(=O)c2cccc(-c3ccc(/C=C4/C(=O)Nc5ccc(Cl)cc54)o3)c2)CC1 [CX-6258 (hydrochloride)]
inactive: ERN1; 2.5 µM 0 | FGFR1; 2.5 µM 0 | FGFR2; 2.5 µM 0 | FGFR3; 2.5 µM 0 | FGR; 2.5 µM 0 | FLT3; 2.5 µM 0 | FYN; 2.5 µM 0 | GSK3A; 2.5 µM 0 | HER2; 2.5 µM 0 | INSRR; 2.5 µM 0 | IRAK3; 2.5 µM 0 | JAK1; 2.5 µM 0 | LCK; 2.5 µM 0 | LIMK1; 2.5 µM 0 | LIMK2; 2.5 µM 0 | LMTK2; 2.5 µM 0 | LYN; 2.5 µM 0 | MAP2K1; 2.5 µM 0 | MAP2K2; 2.5 µM 0 | MAP4K2; 2.5 µM 0

CN(C)C(=O)c1cc2cnc(Nc3ccc(N4CCNCC4)cn3)nc2n1C1CCCC1 [Ribociclib hydrochloride]
inactive: FGFR1; 2.5 µM 0 | FGFR2; 2.5 µM 0 | FGFR3; 2.5 µM 0 | FGR; 2.5 µM 0 | FLT3; 2.5 µM 0 | FYN; 2.5 µM 0 | GSK3A; 2.5 µM 0 | HER2; 2.5 µM 0 | INSRR; 2.5 µM 0 | IRAK3; 2.5 µM 0 | JAK1; 2.5 µM 0 | LCK; 2.5 µM 0 | LIMK1; 2.5 µM 0 | LIMK2; 2.5 µM 0 | LMTK2; 2.5 µM 0 | LYN; 2.5 µM 0 | MAP2K1; 2.5 µM 0 | MAP2K2; 2.5 µM 0 | MAP4K2; 2.5 µM 0
